Assay results: paper PMC11130711
No constants are given. Whether binding was seen depends on the method and setting. In cells and extracts the contact can be indirect. Some binding calls cover weakened binding; strength is not graded here.

Amino acid sequences for entries named in this document (tags omitted).
UniProt Q8R4B8: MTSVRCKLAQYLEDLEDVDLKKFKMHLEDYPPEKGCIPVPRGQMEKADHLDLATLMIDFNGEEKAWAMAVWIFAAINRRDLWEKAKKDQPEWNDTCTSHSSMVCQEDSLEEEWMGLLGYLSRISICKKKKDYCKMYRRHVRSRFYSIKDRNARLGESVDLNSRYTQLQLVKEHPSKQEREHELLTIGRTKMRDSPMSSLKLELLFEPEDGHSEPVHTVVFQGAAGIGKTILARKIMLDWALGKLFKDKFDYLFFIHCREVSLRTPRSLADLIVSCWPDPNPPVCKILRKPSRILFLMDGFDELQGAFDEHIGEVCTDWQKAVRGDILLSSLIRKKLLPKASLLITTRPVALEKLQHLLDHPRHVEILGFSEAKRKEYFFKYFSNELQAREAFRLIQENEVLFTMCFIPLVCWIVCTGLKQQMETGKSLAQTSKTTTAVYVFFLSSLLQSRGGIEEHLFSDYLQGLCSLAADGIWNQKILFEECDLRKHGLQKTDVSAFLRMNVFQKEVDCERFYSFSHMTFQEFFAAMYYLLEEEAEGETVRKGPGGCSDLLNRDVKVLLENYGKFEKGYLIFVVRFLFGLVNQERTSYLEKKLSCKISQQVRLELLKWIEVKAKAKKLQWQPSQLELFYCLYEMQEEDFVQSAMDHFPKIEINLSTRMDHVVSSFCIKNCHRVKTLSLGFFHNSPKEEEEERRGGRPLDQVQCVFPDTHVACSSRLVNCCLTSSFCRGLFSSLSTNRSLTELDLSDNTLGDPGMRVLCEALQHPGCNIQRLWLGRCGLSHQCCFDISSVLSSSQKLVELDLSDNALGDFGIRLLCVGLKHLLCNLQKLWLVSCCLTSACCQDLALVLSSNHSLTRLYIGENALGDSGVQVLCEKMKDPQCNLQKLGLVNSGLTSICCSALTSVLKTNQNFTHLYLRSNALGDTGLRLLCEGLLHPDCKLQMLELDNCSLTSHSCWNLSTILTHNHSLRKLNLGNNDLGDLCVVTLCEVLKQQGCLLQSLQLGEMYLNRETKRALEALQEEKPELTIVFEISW
UniProt Q96P20: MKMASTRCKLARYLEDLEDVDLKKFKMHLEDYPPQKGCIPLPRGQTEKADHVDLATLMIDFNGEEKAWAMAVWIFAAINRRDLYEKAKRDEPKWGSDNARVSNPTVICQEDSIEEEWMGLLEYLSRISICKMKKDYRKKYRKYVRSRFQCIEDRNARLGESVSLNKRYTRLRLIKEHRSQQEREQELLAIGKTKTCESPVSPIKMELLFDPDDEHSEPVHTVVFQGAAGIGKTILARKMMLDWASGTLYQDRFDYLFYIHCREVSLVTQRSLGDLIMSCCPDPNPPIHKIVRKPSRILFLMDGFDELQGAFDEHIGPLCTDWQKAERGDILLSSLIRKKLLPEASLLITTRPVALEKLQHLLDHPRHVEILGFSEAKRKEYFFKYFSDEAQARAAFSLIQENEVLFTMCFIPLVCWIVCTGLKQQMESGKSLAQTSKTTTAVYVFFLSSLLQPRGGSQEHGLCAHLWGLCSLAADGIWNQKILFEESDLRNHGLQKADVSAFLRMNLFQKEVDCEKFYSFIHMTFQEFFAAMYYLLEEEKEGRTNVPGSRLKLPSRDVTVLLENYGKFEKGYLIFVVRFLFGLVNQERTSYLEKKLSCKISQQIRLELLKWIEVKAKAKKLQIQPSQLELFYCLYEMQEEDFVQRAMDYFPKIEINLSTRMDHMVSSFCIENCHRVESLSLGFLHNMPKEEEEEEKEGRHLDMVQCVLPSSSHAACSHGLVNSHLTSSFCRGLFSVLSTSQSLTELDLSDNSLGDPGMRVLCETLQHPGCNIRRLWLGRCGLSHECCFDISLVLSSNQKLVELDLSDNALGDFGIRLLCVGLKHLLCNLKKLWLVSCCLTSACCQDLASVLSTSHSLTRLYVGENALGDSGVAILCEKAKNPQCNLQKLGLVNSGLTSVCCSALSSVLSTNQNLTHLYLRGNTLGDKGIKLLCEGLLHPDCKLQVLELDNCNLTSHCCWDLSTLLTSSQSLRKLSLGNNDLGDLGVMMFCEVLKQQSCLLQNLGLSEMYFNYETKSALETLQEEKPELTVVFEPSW
UniProt Q9ULZ3: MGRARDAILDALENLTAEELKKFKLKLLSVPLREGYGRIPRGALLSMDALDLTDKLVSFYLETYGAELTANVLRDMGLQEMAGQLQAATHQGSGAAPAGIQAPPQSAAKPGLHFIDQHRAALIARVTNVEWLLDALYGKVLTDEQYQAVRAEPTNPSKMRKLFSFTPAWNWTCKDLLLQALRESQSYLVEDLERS

Columns and labels:
[1] = molecular target: Flag-NLRP3 (mouse NLRP3, wild type) (mouse) (UniProt Q8R4B8); assay: co-IP; Flag-NLRP3 and ASC expressed in HEK293T cells (WT or ZDHHC7 KO; DMSO or 2-BP for 12 h); RIPA lysate; IP with anti-FLAG M2 agarose, immunoblot
[2] = molecular target: NLRP3 (NOD-like receptor protein 3), endogenous in mouse BMDMs (mouse (endogenous in BMDMs)) (UniProt Q8R4B8); assay: FRET or BRET; FRET assay in LPS-primed BMDMs (Figure S1B); its methods were not shown
[3] = molecular target: NLRP3, endogenous in human THP-1 cells (human (endogenous in THP-1)) (UniProt Q96P20); assay: co-IP; endogenous proteins; THP-1 cells resting, PMA-differentiated, or treated with LPS and nigericin; RIPA lysate; IP of NLRP3 with protein A/G agarose, immunoblot for ZDHHC7

“ASC (apoptosis-associated speck-like protein containing a CARD), human, expressed in HEK293T cells (from UniProt Q9ULZ3 1-195)” was tested, and the binding [1] was “binds”.

B1: ZDHHC7 (zinc finger DHHC-type palmitoyl transferase 7), endogenous in mouse BMDMs (enzyme, UniProt Q91WU6 1-308)
chain: MQPSGHRLRDIEHHPLLTDNDNYDSASSSSSETDMADRVWFIRDGCGMVCAVMTWLLVVYADFVVTFVMLLPSKDFWYSVVNGVLFNCLAVLALSSHLRTMLTDPGAVPKGNATKEYMESLQLKPGEVIYKCPKCCCIKPERAHHCSICKRCIRKMDHHCPWVNNCVGEKNQRFFVLFTMYIALSSVHALILCGLQFISCVRGQWTECSDFSPPITVILLVFLCLEGLLFFTFTAVMFGTQIHSICNDETEIERLKSEKPTWERRLRWEGMKSVFGGPPSLLWMNPFVGFRLRRLQMRTRKGGPEFSV
For B1, the binding [2] was “binds”.

B2: ZDHHC7, endogenous in human THP-1 cells (enzyme, UniProt Q9NXF8 1-308)
chain: MQPSGHRLRDVEHHPLLAENDNYDSSSSSSSEADVADRVWFIRDGCGMICAVMTWLLVAYADFVVTFVMLLPSKDFWYSVVNGVIFNCLAVLALSSHLRTMLTDPGAVPKGNATKEYMESLQLKPGEVIYKCPKCCCIKPERAHHCSICKRCIRKMDHHCPWVNNCVGEKNQRFFVLFTMYIALSSVHALILCGFQFISCVRGQWTECSDFSPPITVILLIFLCLEGLLFFTFTAVMFGTQIHSICNDETEIERLKSEKPTWERRLRWEGMKSVFGGPPSLLWMNPFVGFRFRRLPTRPRKGGPEFSV
For B2, the binding [3] was “binds”.
